Measured values reported in PubChem BioAssay AID504467 (National Center for Advancing Translational Sciences (NCATS), 2011).
The whole screen tested about 330,000 compounds, of which about 7,700 (2.3%) were called active. This list was built around the results that the source calls inconclusive (neither active nor inactive); the mix of calls is not that of the screen. Calls follow the shape of the dose curve; as a rule, active = well fitted inhibition curve with a large enough effect; inconclusive = small, poorly fitted or top-dose-only effect, or effect the other way; inactive = flat fitted curve, though single readings scatter. A potency beside an inconclusive call is a rough fit, not a confirmed value.
% is scaled to controls: 0 for no effect and ±100 for the full control effect; potency is read from the fitted curve at half-maximal effect.

Test: qHTS screen for small molecules that inhibit ELG1-dependent DNA repair in human embryonic kidney (HEK293T) cells expressing luciferase-tagged ELG1; also: nearly all actives have a fitted effect of over 55% in size
Conditions: HEK293T ELG1-luciferase reporter, luminescence, 16 h, DNA damage induced by 5-fluorouridine; activity change, negative = inhibition: at 46.1 µM (top of the series)
Description: NIH Molecular Libraries Probe Production Network [MLPCN] NIH Chemical Genomics Center [NCGC] MLPCN Grant: 1 R03 MH092164-01 Assay Provider: Kyungjae Myung, NHGRI, NIH Keywords: MLPCN, qHTS, NCGC, genotoxicity, cancer Assay Overview: Cancer cells divide rapidly compared to normal cells in the body. During cell division, cancer cells need to duplicate their genome by DNA replication. The failure of genome duplication leads to cancer cells' death. Therefore, inhibitors of DNA replication could specifically kill cancer cells. Based on this concept, many chemotherapeutic agents were developed and have been used to treat cancer patients. However, there are a limited number of agents available in the clinical setting, and some of those that do exist have low efficacy and severe side effects. Therefore, if we can find the compounds that effectively block DNA replication either by directly damaging DNA or by inhibiting other cellular mechanisms, the options for cancer treatment will be broadened. With this in mind, we developed a quantitative high-throughput ELG1-luciferase reporter gene assay. Small molecules that specifically block ELG1 function in response to DNA damage can be identified by monitoring the suppression of luciferase activity. Since ELG1 defines a pathway for repairing DNA damage, agents blocking ELG1 function can be used to sensitize cancer cells to chemotherapeutic agents whose mechanism of action involves the induction of DNA damage.
Assay Protocol Summary: For genotoxicity screening, 2,000 cells in 4 uL/well were dispensed into white, solid-bottom 1536-well plates using a solenoid-based dispenser. Following transfer of 1 uL 5-Fluorouridine and 23 nL compound or DMSO vehicle by a pin tool, the plates were incubated 16 hr at 37 °C and 5% CO2. 5 ul ONE-Glo (Promega) was then added to each plate and following a 30 min incubation at room temperature, luciferase activity was quantified on a ViewLux CCD-based plate reader.
With `Oc1c(Cl)cc(CN2CCCCC2)c2cccnc12` the Potency was inconclusive: 18.3 µM [inhibitor, partial curve].
For `COc1cc(COc2ccc(-c3nnco3)cc2)ccc1OC(F)F`, the “activity change, negative = inhibition” value was inactive: 4.66%.
With `O=C(NCC1CCCO1)c1c(O)c2cccc3c2n(c1=O)CC3` (centres undefined) the Potency was inconclusive: 13 µM [activator, partial curve].
For `CC(C)(C)c1ccc(-n2ncc3c2CCCC3NC(=O)CCN2CCCCC2=O)cc1` (centres undefined), the Potency was inconclusive: 5.8 µM [inhibitor, partial curve].
With `C/C(=N/NC(=O)c1cc2ccccc2cc1O)c1ccco1` the Potency was inconclusive: 16.4 µM [activator, partial curve].
With `COc1cccc(/C=N/NC(=O)c2cnccn2)c1` the Potency was inconclusive: 20.6 µM [activator, single point].
With `S=c1[nH]nc(-c2ccc(Br)o2)n1Cc1ccccc1` the Potency was inconclusive: 25.9 µM [activator, partial curve, poor fit].
For `CCOc1ccc(N(C)S(=O)(=O)c2ccc(C)c(C(=O)N3CCN(Cc4ccc5c(c4)OCO5)CC3)c2)cc1`, the Potency was active: 16.4 µM.
For `O=C(NCc1cccs1)c1ccc(S(=O)(=O)N2CCOCC2)cc1`, the “activity change, negative = inhibition” value was inactive: -3.13%.
For `CCCC(=O)Nc1ccc(S(=O)(=O)Nc2cc(OC)ncn2)cc1`, the “activity change, negative = inhibition” value was inactive: -1.7%.
With `CCCCN(CC)CCCNC(=O)c1cc2c(=O)n(CC)c3ccccc3c2s1` the Potency was inconclusive: 11.6 µM [activator, partial curve].
With `Cc1ccccc1Nc1nc(N)nc(COC(=O)c2c(C)noc2C)n1` the Potency was inconclusive: 20.6 µM [activator, partial curve, poor fit].
For `CCCCCCCCC(=O)N/N=C(\C)c1ccc(O)cc1O`, the Potency was inconclusive: 2.59 µM [inhibitor, partial curve, poor fit].
With `COc1ccc(-c2csc(NC(=O)CSCc3c(C)noc3C)n2)cc1OC` the Potency was active: 11.6 µM.
In the case of `O=C(OCC(=O)N1CCOCC1)c1cc2ccccc2oc1=O`, the Potency is reported as inconclusive: 14.6 µM [activator, partial curve, poor fit].
For `Cc1c(O)ccc2c(CC(=O)N[C@@H](Cc3ccc(O)cc3)C(=O)O)cc(=O)oc12`, the “activity change, negative = inhibition” value was inactive: 11.9%.
For `NS(=O)(=O)c1ccc(CCNC(=O)CNC(=O)c2ccc(F)cc2)cc1`, the Potency was inconclusive: 29.1 µM [activator, partial curve, poor fit].
With `O=C1COc2ccc(C(=O)CSc3nnc(-c4cccs4)n3Cc3ccccc3)cc2N1` the Potency was inconclusive: 18.4 µM [inhibitor, single point].
In the case of `CC(=O)c1cccc(N(CC(=O)Nc2ccc(F)cc2)S(C)(=O)=O)c1`, the Potency is reported as inconclusive: 29.1 µM [activator, partial curve, poor fit].
For `CSc1cccc(NC(=O)CCCOc2ccc(Cl)cc2C)c1`, the “activity change, negative = inhibition” value was inactive: 0.296%.
For `CCCNC(=O)c1ccccc1NC(=O)COc1cccc2c1OC(C)(C)C2`, the Potency was active: 14.6 µM.
With `O=C(Nc1ccc(N2CCN(C(=O)c3cccs3)CC2)c(Cl)c1)c1ccco1` the Potency was active: 20.6 µM.
For `O=C(N/N=C/C=C\c1ccccc1[N+](=O)[O-])c1cccs1`, the Potency was inconclusive: 32.6 µM [inhibitor, single point].
In the case of `C/C(=N\NC(=O)c1c(Cl)cnn1C)c1ccc(NC(=O)c2ccc(Br)o2)cc1`, the “activity change, negative = inhibition” value is reported as inactive: 0%.
In the case of `C#CCSc1nc(=O)c2cccnc2n1-c1ccc(C)cc1`, the “activity change, negative = inhibition” value is reported as inactive: 3.58%.
In the case of `NC(=O)c1ccsc1NC(=O)COC(=O)/C=C/c1ccccc1`, the Potency is reported as inconclusive: 25.9 µM [inhibitor, single point].
For `Cc1ccc(NC(=S)N2CCCC2)cc1C`, the Potency was inconclusive: 20.6 µM [activator, single point].
With `c1ccc(CN2CCC(Nc3ncnc4sccc34)CC2)cc1` the Potency was active: 6.51 µM.
With `CCn1cc(C(=O)N(C)c2cc(C)ccc2OC)c2cc(OC)c(OC)cc2c1=O` the Potency was inconclusive: 18.3 µM [inhibitor, single point].
For `COc1ccc(-n2c(C)cc(C(=O)CN3C(=O)c4ccccc4C3=O)c2C)cc1`, the Potency was inconclusive: 9.2 µM [activator, partial curve].
With `CN1CCN(S(=O)(=O)c2cccc(C(=O)N(C)Cc3c(F)cccc3Cl)c2)CC1` the “activity change, negative = inhibition” value was inactive: 0.205%.
In the case of `Cc1cc(-c2cc(C(=O)NCc3ccccc3)on2)nc(S(C)(=O)=O)n1`, the Potency is reported as inconclusive: 18.3 µM [activator, single point].
With `O=C(O)C1CCCN(S(=O)(=O)c2cccs2)C1` (centres undefined) the “activity change, negative = inhibition” value was inactive: -4.59%.
In the case of `CC1CC(C)CN(CC(=O)NNC(=O)COc2ccc(Cl)cc2)C1` (centres undefined), the “activity change, negative = inhibition” value is reported as inactive: 7.44%.
With `N/C(Cn1cncn1)=N\NC(=O)C(=O)Nc1ccccc1` the “activity change, negative = inhibition” value was inactive: 9.63%.
With `O=C(c1ccc2c(Cl)c3c(nc2c1)CCCC3)N1CCC(N2CCCCC2)CC1` the “activity change, negative = inhibition” value was inactive: -8.04%.
In the case of `Cc1cccc(N2CCN(C(=O)c3ccc(-n4cncn4)c([N+](=O)[O-])c3)CC2)c1C`, the Potency is reported as inconclusive: 16.4 µM [inhibitor, partial curve].
For `CCn1cc(C(C)NC(=O)Nc2ccc3c(c2)OCO3)c(C)n1` (centres undefined), the Potency was inconclusive: 14.6 µM [activator, partial curve, poor fit].
For `Nc1c(C(=O)NC2CCCCC2)nsc1C(=O)OCC(=O)NC1CCCCC1`, the Potency was inconclusive: 6.31 µM [inhibitor, partial curve, poor fit].
With `COc1ccc(N2CCC(CNC(=O)Nc3ccc(Cl)cc3)C2)cc1` (centres undefined) the Potency was inconclusive: 29.1 µM [inhibitor, single point].
In the case of `CC(=O)Nc1ccc2c(c1)CCc1ccccc1-2`, the Potency is reported as inconclusive: 20.6 µM [activator, partial curve].
For `O=C(COC(=O)c1ccccc1Nc1ccccc1)c1ccccc1`, the Potency was inconclusive: 16.4 µM [activator, partial curve, poor fit].
In the case of `COc1ccc2[nH]c3c(=S)nc[nH]c3c2c1`, the “activity change, negative = inhibition” value is reported as inactive: 12.6%.
For `O=C(CCc1nc(-c2ccc(Cl)cc2)no1)NCc1ccccc1CN1CCOCC1`, the Potency was inconclusive: 16.4 µM [inhibitor, single point].
With `CN(C)CCNC(=S)Nc1ccc(Br)cc1` the Potency was inconclusive: 18.4 µM [activator, single point].
With `COc1ccc(-c2nc(C#N)c(NCCCn3ccnc3)o2)cc1OC` the Potency was inconclusive: 20.6 µM [activator, single point].
With `COc1ccc(/C=C/c2onc(C)c2S(=O)(=O)N2CCC(C(=O)N3CCC(C)CC3)CC2)cc1` the Potency was inconclusive: 13 µM [inhibitor, partial curve, poor fit].
In the case of `N#CCCN(C(=S)Nc1ccc(S(=O)(=O)N2CCOCC2)cc1)c1ccccc1F`, the “activity change, negative = inhibition” value is reported as inactive: -1.12%.
With `Cc1ccc(C)c(NC(=O)COC(=O)CC2c3ccccc3CCN2S(=O)(=O)c2ccc(F)cc2)c1` (centres undefined) the Potency was inconclusive: 18.4 µM [inhibitor, single point].
For `CC(=O)Nc1ccc(N=Nc2c(C)[nH]n(C(N)=S)c2=O)cc1`, the Potency was inconclusive: 23.1 µM [activator, partial curve].
With `O=C(NCCN1CCCCC1)Nc1ccc(F)c(Cl)c1` the Potency was inconclusive: 18.4 µM [activator, partial curve, poor fit].
For `Cc1ccc(C(=O)NNC(=O)c2cc3ccccc3cc2O)cc1`, the “activity change, negative = inhibition” value was inactive: -1.67%.
In the case of `O=C(c1ccc2c(c1)OCO2)N1CCC2(CC1)Oc1ccc(Cl)cc1C(=O)C21CC(c2ccccc2)=NO1` (centres undefined), the “activity change, negative = inhibition” value is reported as inactive: -4.3%.
With `CC(=O)c1ccc(N2CCN(C(=O)c3ccc(Cl)c(NC4=NC5CS(=O)(=O)CC5S4)c3)CC2)cc1` (centres undefined) the “activity change, negative = inhibition” value was inactive: 9.16%.
With `O=C(Nc1ccc2c(c1)CCC2)C1COc2ccccc2O1` (centres undefined) the Potency was inconclusive: 3.66 µM [activator, full curve].
With `Cc1cc(NC(=O)CN2CCN(S(=O)(=O)c3ccc(Cl)cc3)CC2)no1` the “activity change, negative = inhibition” value was inactive: 1.95%.
For `Cc1cc(SCC(=O)c2cccs2)n2nc(C)c(-c3ccccc3)c2n1`, the Potency was inconclusive: 23.1 µM [inhibitor, single point].
In the case of `COc1ccc(N2CCN(C(c3cccs3)C(C)NC(=O)c3ccco3)CC2)cc1` (centres undefined), the Potency is reported as inconclusive: 29.1 µM [inhibitor, single point].
In the case of `CCc1ccc(N2CC(C)Cn3c2nc2c3c(=O)[nH]c(=O)n2C)cc1` (centres undefined), the Potency is reported as inconclusive: 29.1 µM [inhibitor, partial curve, poor fit].
For `Cc1ccc(CN2CCN(Cc3ccc(-n4cccn4)cc3)CC2CCO)cc1` (centres undefined), the Potency was inconclusive: 13 µM [inhibitor, partial curve].
For `COc1ccc(S(=O)(=O)NC2CCCC2)cc1C(N)=O`, the “activity change, negative = inhibition” value was inactive: -4.52%.
With `Cc1cc(C(C2C(=O)CC(C)(C)CC2=O)C2C(=O)CC(C)(C)CC2=O)cc(C)c1OC(F)F` the Potency was inconclusive: 32.6 µM [activator, partial curve, poor fit].
For `COc1ccc(NC(=O)c2cc(-c3cccnc3)nc3c(C)c(C)ccc23)c(OC)c1`, the Potency was inconclusive: 18.4 µM [inhibitor, single point].
For `CCCCn1c(SCC(=O)c2ccc(OC)c(OC)c2)nc2cc(S(N)(=O)=O)ccc21`, the Potency was inconclusive: 23.1 µM [inhibitor, single point].
For `COc1ccccc1C(=O)NCCC(=O)N1CC=C(c2ccccc2)CC1`, the Potency was inconclusive: 5.8 µM [inhibitor, single point].
With `Cc1ccc(-n2c(C)cc(C(=O)COc3cccnc3[N+](=O)[O-])c2C)cc1` the Potency was inconclusive: 16.4 µM [activator, partial curve].
With `Cc1cc(C)c2c(=O)n(CC(=O)Nc3ccc(Br)c(C)c3)sc2n1` the “activity change, negative = inhibition” value was inactive: 0%.
For `O=C(O)CCC(=O)Nc1ccc(C(=O)OCC(=O)c2ccc(Cl)cc2Cl)cc1`, the Potency was inconclusive: 29.1 µM [inhibitor, single point].
With `Cc1ccc(CSc2nc3ccncc3[nH]2)cc1` the Potency was inconclusive: 0.58 µM [activator, full curve].
